At least one compound was matched to its structure with a doubt left.
Experiments:
[1] = system: melanoma; details: single agent, melanoma patients; cited from earlier work
[2] = system: human melanoma cells (MEL-2); assay: In vivo activity against established MEL-2 melanomas in athymic mice; details: treatment from day 13, IP every third day; betulinic acid/PVP 250 mg/kg/dose, DTIC 4 mg/kg/dose
Procedure: Next, in vivo testing of betulinic acid was performed on established melanomas. In this study, treatment was withheld until day 13, by which time a palpable tumor mass was present in all mice.
In particular, with respect to FIG. 2, four-week-old athymic mice were injected with 5×10^8 MEL-2 cells subcutaneously in the right flank. Four treatment groups of five mice each were studied. In one group, the mice received 250 mg/kg/dose of IP betulinic acid/PVP every third day for six total doses initiated the day following tumor cell injection. The control group received 0.5 ml IP saline. A DTIC treatment group received 4 mg/kg/dose IP DTIC every third day from day 13 to day 28 of the study. The betulinic acid treatment group received 250 mg/kg/dose IP betulinic acid/PVP every third day from day 13 to day 27. The control and DTIC-treated mice were sacrificed and autopsied on day 36 due to their large tumor burden. The remaining mice were sacrificed and autopsied on day 41.

## CN(C)/N=N/c1[nH]cnc1C(N)=O [DTIC, 5-(3,3-Dimethyl-1-triazenyl)-1-H-imidazole-4-carboxamide, reference compound]
[1]
  overall response rate: 24%
[2]
  tumor growth, established MEL-2 tumors (FIG. 2): significant, but less pronounced, reduction in tumor growth
